# Part of at least one peptide drawing is inferred or uncertain, most often the ends. No end group written: not given here.
# How the values were obtained:
# [1] = test system: E39-specific CD8+ T-cells; test: Phase Ib trial: ex vivo immune response by dextramer assay; format: in vivo, human; conditions: for levels of E39-specific CTLs over the PVS: E39′ added to PVS vs only E39 in PVS
# E39 specific CTL = test: Booster study: E39 specific CTL levels by Dextramer reagents; format: in vivo, human
# [2] = test system: endometrial, ovarian, fallopian tube or peritoneal cancer; test: Booster study: recurrence rate and estimated 2-year DFS; format: in vivo, human; conditions: for recurrence rate: boost group
# [3] = Booster study: local reactions (LR) 48-72 hours after each booster, safety; format: in vivo, human; conditions: 500 mcg peptide + 250 mcg GM-CSF
# Excerpt: Booster inoculations of peptide vaccines may improve disease-free survival (DFS) (e.g., U.S. Pat. No. 8,222,214), but repeated boosting can theoretically lead to overstimulation and loss of vaccine-induced T cells. Therefore, to assess the use of the attenuated E39′ peptide as a booster, E39-vaccinated patients described in Example 1 were randomized to receive either E39 or E39′ as a booster to determine the effect on long-term E39-specific immunity. Patients in the VG received six intradermal E39 injections as described in Example 1 as a primary vaccination schedule (PVS). At six months (B1) and at twelve months (B2) after completion of the PVS, patients received either 500 mcg of E39′ and 250 mcg GM-CSF or 500 mcg E39 and 250 mcg of GM-CSF as a booster.
# Local reactions (LR) were recorded 48-72 hours after each booster. Immune response was determined by measurement of E39 specific CTL levels using a Dextramer reagents in accordance with the manufacturer's instructions (Immudex Limited, Copenhagen, Denmark) as previously described (e.g., Tario et al. Cytometry B Clin. Cytom. 2015; 88B:6-20; Baba J. Transl Med. 2010; 8:84), at R0 (baseline pre-vaccination), RC1(1 month after completion of PVS), RC6 (6 months after completion of PVS and before booster), RC7 (1 month after booster) and RC12 (6 months after booster and 12 months after completion of PVS). Demographic, safety, immunological, and DFS data were collected and evaluated.
# [4] = test system: E39 peptide-specific immune response; test: Phase I/IIa trial: delayed-type hypersensitivity (DTH) reaction to 100 mcg E39, pre-vaccination and post-PVS; format: in vivo, human; conditions: for immunogenicity of the vaccine: all vaccinated patients; for DTH, orthogonal mean of induration to E39: all vaccinated patients (VG), mean±standard error
# [5] = test system: tumor-associated lymphocyte (TAL); conditions: cited from earlier work
# [6] = test system: endometrial, ovarian, fallopian tube or peritoneal cancer; test: Phase I/IIa trial: clinical recurrence and disease-free survival (Kaplan-Meier); format: in vivo, human
# [7] = test system: functional T cell response; conditions: five HLA-A2 patients who received E39 with other peptides and immunoadjuvant; cited from earlier work
# [8] = booster B1 (6 months after PVS)
# [9] = booster B2 (12 months after PVS)
sequence,measurement,setting,value
"EIWTFSTKV [E39′, EIWTFSTKV]",levels of E39-specific CTLs over the PVS,[1],maintained the levels of E39-specific CTLs
same,immunogenicity of booster,E39 specific CTL; 500 mcg peptide + 250 mcg GM-CSF booster,as immunogenic as the wildtype peptide (E39)
same,E39 CTL Level,"E39 specific CTL; R0 (baseline pre-vaccination), one patient, E39 PVS then E39′ booster",0.018
same,E39 CTL Level,"E39 specific CTL; RC1 (1 month after completion of PVS), same patient",0.018
same,E39 CTL Level,"E39 specific CTL; RC6 (6 months after completion of PVS, before booster), same patient",0.078
same,E39 CTL Level,"E39 specific CTL; RC7 (1 month after booster), same patient",.275
same,E39 CTL Level,"E39 specific CTL; RC12 (6 months after booster, 12 months after PVS), same patient",.275
same,persistence of increased CTL level after boosting,"E39 specific CTL; after E39′ booster, exemplified patient",at least 6 months
same,increase in CTL level over baseline,"E39 specific CTL; after boosting with the E39′ peptide, exemplified patient",> 15 fold
same,hazard ratio (HR) E39′ vs. E39,"[2]; B1, boosted groups only",0.71
same,estimated 2-year DFS,[2]; B1 pts,66.7%
same,hazard ratio (HR) E39′ vs. E39,"[2]; B2, boosted groups only",0.82
same,estimated 2-year DFS,[2]; B2 pts,66.7%
same,clinical benefit of booster,[2]; attenuated peptide booster vs wildtype booster,potential clinical advantage
same,recurrence rate,[2],22.2%
same,average local reaction (LR),[3]; [8],79.7±14.0 mm
same,average local reaction (LR),[3]; [9],74.1±11.5 mm
"EIWTHSYKV [E39, EIWTHSYKV]",levels of E39-specific CTLs over the PVS,[1],decreased
same,overall immune response,"[1]; phase Ib, three vaccination strategies",immunogenic
same,increase in E39-specific CTLs,"E39 specific CTL; by 6 months after completion of the E39 PVS, exemplified patient",> 4 fold
same,estimated 2-year DFS,[2]; B1 pts,58.3%
same,estimated 2-year DFS,[2]; B2 pts,66.7%
same,recurrence rate,[2],25%
same,average local reaction (LR),[3]; [8],82.1±8.3 mm
same,average local reaction (LR),[3]; [9],78±11.2 mm
same,immunogenicity of the vaccine,[4]; listed as E39+GM-CSF,immunogenic
same,immunogenicity of the vaccine,[4]; listed as E39 vaccine,able to effectively induce a robust immune response
same,"DTH, orthogonal mean of induration to E39",[4]; post-vaccination (post-PVS),10.3±2.8 mm
same,"DTH, orthogonal mean","[4]; post-vaccination, OPT patients (1000 mcg)",9.5±3.5 mm
same,"DTH, orthogonal mean","[4]; post-vaccination, nOPT patients (<1000 mcg)",11.3±4.8 mm
same,"DTH, orthogonal mean","[4]; pre-vaccination, OPT patients (1000 mcg)",3.8±2.0 mm
same,"DTH, orthogonal mean of induration to E39",[4]; pre-vaccination,5.7±1.5 mm
same,"DTH, orthogonal mean","[4]; pre-vaccination, nOPT patients (<1000 mcg)",7.8±2.1 mm
same,effect on TAL proliferation and anti-tumor function,[5],capable of enhancing tumor-associated lymphocyte (TAL) proliferation and anti-tumor function
same,hazard ratio (HR) of recurrence,[6]; OPT compared to nOPT patients,0.17
same,2-year estimated DFS,[6]; OPT group (1000 mcg),85.7%
same,recurrence rate,[6]; OPT group (1000 mcg),13.3%
same,likelihood of recurrence compared to control group,[6]; OPT group versus CG,five times less likely to experience a recurrence
same,reduction in relative risk of recurrence,[6]; OPT vs control groups,83%
same,2-year estimated DFS,[6]; nOPT group (<1000 mcg),20.8%
same,"recurrence, comparison with control group",[6]; nOPT group versus CG,no statistically significant difference in recurrence
same,"estimated 2-year DFS, comparison with control group",[6]; nOPT versus CG,no difference of statistical significance
same,reduction in relative risk of recurrence,[6]; optimal dose (OPT) compared to nOPT patients,83%
same,2-year estimated DFS,"[6]; vaccinated group (VG), all doses",43%
same,overall recurrence rate,"[6]; vaccinated group (VG), median follow up 12.0 months",41.4%
same,reduction in relative recurrence risk,"[6]; vaccinated patients vs controls, regardless of dose",31%
same,patients who developed a functional T cell response by ELISpot,[7],40%

# Reference: patent US9993538B2, “Peptide vaccine therapy for treatment of FRα-expressing tumors” (Galena Biopharma, Inc., priority 2015, dated 2018)
